Measurements reported in patent publication US12109301B2, “Formulations, methods, and systems for treating genitourinary conditions” (Massachusetts Institute of Technology, priority 2017, dated 2024).
Read-outs that look alike come from different tables or passages of the source.

Tests used:
[1] = Solubility and drug retention in surgical lubricant/surfactant mixture; settings: 0.6 mL Polysorbate 20 in 19.4 mL lubricant, each component
Method: A commercially available surgical lubricant (SURGILUBE® lubricant) was combined with a surfactant. The surfactant was Polysorbate 20, and 0.6 mL of the Polysorbate 20 was added to 19.4 mL of the surgical lubricant.
However, more surfactant may be added to increase drug concentration, e.g., up to about 500 μM.

hUSMCs = settings: for Percentages of Cells that Remained Contracted After Treatment: ROCK 0 μM

COC(=O)C1=C(C)NC(C)=C(C(=O)OC)C1c1ccccc1[N+](=O)[O-] [Nifedipine]
actual drug retention in the surgical lubricant/surfactant mixture [1]: about 200 μM | relaxation (hUSMCs; 25 μM alone, 8 hour exposure): 45% | Percentages of Cells that Remained Contracted After Treatment (hUSMCs; Nifedipine 1.56 μM): 99% | Percentages of Cells that Remained Contracted After Treatment (hUSMCs; Nifedipine 6.25 μM): 101% | Percentages of Cells that Remained Contracted After Treatment (hUSMCs; Nifedipine 12.50 μM): 100% | Percentages of Cells that Remained Contracted After Treatment (hUSMCs; Nifedipine 25.00 μM): 55%
